Experimental findings from publication PMC7261492, “ISCU interacts with NFU1, and ISCU[4Fe-4S] transfers its Fe-S cluster to NFU1 leading to the production of holo-NFU1” (Journal of structural biology, 2020) are described below.

Results are given in words; binding and its absence hold for the method and conditions named. Binding calls can cover weak binding; strength is not graded here.

In this test the target is ISCU(D39V) (human). The test can be described thus: NMR titration; 2D 1H,15N TROSY-HSQC of [U-15N]-ISCU(D39V) before and after adding 0.5 or 1 molar equivalent of unlabelled apo-NFU1; peak intensity ratios at 0.5 equivalent; both purified.

B1: human apo-NFU1 (protein, UniProt Q9UMS0 10-254)
chain: GAAAVAAGLRRRFCHMLKNPYTIKKQPLHQFVQRPLFPLPAAFYHPVRYMFIQTQDTPNPNSLKFIPGKPVLETRTMDFPTPAAAFRSPLARQLFRIEGVKSVFFGPDFITVTKENEELDWNLLKPDIYATIMDFFASGLPLVTEETPSGEAGSEEDDEVVAMIKELLDTRIRPTVQEDGGDVIYKGFEDGIVQLKLQGSCTSCPSSIITLKNGIQNMLQFYIPEVEGVEQVMDDESDEKEANSP
Regarding B1, the binding entry is “binds”.
